From article doi:10.1101/670034
Results are given in words; binding and its absence hold for the method and conditions named. Binding seen in cells or lysates may run through a third protein. Some entries that bind do so weakly or less than the wild type. For some of these results: Sequences can lack the tags named with a protein.

Amino acid sequences for entries named in this document (tags omitted).
UniProt Q7Z2H8: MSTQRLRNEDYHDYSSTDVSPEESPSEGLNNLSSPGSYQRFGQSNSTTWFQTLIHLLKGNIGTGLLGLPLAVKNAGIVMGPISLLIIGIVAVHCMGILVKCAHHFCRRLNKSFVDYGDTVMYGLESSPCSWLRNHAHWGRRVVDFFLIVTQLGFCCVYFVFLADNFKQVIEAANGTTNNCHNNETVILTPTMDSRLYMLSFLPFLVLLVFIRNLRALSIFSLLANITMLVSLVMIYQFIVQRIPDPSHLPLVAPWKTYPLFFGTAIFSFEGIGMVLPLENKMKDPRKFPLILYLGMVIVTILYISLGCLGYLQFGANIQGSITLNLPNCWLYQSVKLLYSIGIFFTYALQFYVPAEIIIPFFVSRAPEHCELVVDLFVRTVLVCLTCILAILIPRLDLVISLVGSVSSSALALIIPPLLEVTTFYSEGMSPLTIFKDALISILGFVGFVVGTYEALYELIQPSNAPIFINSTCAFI

T1: PQLC2-2xHA expressed from the endogenous locus (human (endogenous in HEK293FT)) (UniProt Q6ZP29)
T1 sequence: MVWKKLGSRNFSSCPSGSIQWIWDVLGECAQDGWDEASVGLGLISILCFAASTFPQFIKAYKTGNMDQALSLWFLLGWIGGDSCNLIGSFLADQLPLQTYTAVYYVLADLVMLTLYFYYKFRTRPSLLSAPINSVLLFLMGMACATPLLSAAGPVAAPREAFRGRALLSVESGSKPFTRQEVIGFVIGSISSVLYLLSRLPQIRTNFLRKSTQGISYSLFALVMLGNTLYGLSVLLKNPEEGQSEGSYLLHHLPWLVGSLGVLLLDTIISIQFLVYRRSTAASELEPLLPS

T2: PQLC2-FLAG (wild type) (UniProt Q6ZP29)
T2 sequence: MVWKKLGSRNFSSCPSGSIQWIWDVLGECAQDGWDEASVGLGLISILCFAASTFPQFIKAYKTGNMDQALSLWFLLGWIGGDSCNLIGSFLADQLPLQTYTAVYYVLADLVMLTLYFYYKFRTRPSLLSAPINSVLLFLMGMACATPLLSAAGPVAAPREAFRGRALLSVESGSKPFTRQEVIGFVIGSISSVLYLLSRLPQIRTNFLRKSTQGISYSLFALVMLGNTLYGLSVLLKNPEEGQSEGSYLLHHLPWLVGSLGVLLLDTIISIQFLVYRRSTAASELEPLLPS


How the values were obtained:
Experiment in all cases: co-IP
[1] = biological target: FLAG-tagged PAT1 (also known as LYAAT1 and SLC36A1) (UniProt Q7Z2H8)
[2] = biological target: T1, PQLC2-2xHA expressed from the endogenous locus (human (endogenous in HEK293FT))
PQLC2-FLAG (wild type) = biological target: T2, PQLC2-FLAG (wild type)

Row | binding [1] | binding [2] | binding (PQLC2-FLAG (wild type)) | Binder
1 | no binding | – | – | 2xHA-C9orf72 expressed from the endogenous locus (protein, UniProt Q96LT7 1-481) MSTLCPPPSPAVAKTEIALSGKSPLLAATFAYWDNILGPRVRHIWAPKTEQVLLSDGEITFLANHTLNGEILRNAESGAIDVKFFVLSEKGVIIVSLIFDGNWNGDRSTYGLSIILPQTELSFYLPLHRVCVDRLTHIIRKGRIWMHKERQENVQKIILEGTERMEDQGQSIIPMLTGEVIPVMELLSSMKSHSVPEEIDIADTVLNDDDIGDSCHEGFLLNAISSHLQTCGCSVVVGSSAEKVNKIVRTLCLFLTPAERKCSRLCEAESSFKYESGLFVQGLLKDSTGSFVLPFRQVMYAPYPTTHIDVDVNTVKQMPPCHEHIYNQRRYMRSELTAFWRATSEEDMAQDTIIYTDESFTPDLNIFQDVLHRDTLVKAFLDQVFQLKPGLSLRSTFLAQFLLVLHRKALTLIKYIEDDTQKGKKPFKSLRNLKIDLDLTAEGDLNIIMALAEKIKPGLHSFIFGRPFYTSVQERDVLMTF
2 | no binding | – | – | SMCR8 (endogenous) (protein, UniProt Q8TEV9 1-937) MISAPDVVAFTKEEEYEEEPYNEPALPEEYSVPLFPFASQGANPWSKLSGAKFSRDFILISEFSEQVGPQPLLTIPNDTKVFGTFDLNYFSLRIMSVDYQASFVGHPPGSAYPKLNFVEDSKVVLGDSKEGAFAYVHHLTLYDLEARGFVRPFCMAYISADQHKIMQQFQELSAEFSRASECLKTGNRKAFAGELEKKLKDLDYTRTVLHTETEIQKKANDKGFYSSQAIEKANELASVEKSIIEHQDLLKQIRSYPHRKLKGHDLCPGEMEHIQDQASQASTTSNPDESADTDLYTCRPAYTPKLIKAKSTKCFDKKLKTLEELCDTEYFTQTLAQLSHIEHMFRGDLCYLLTSQIDRALLKQQHITNFLFEDFVEVDDRMVEKQESIPSKPSQDRPPSSSLEECPIPKVLISVGSYKSSVESVLIKMEQELGDEEYKEVEVTELSSFDPQENLDYLDMDMKGSISSGESIEVLGTEKSTSVLSKSDSQASLTVPLSPQVVRSKAVSHRTISEDSIEVLSTCPSEALIPDDFKASYPSAINEEESYPDGNEGAIRFQASISPPELGETEEGSIENTPSQIDSSCCIGKESDGQLVLPSTPAHTHSDEDGVVSSPPQRHRQKDQGFRVDFSVENANPSSRDNSCEGFPAYELDPSHLLASRDISKTSLDNYSDTTSYVSSVASTSSDRIPSAYPAGLSSDRHKKRAGQNALKFIRQYPFAHPAIYSLLSGRTLVVLGEDEAIVRKLVTALAIFVPSYGCYAKPVKHWASSPLHIMDFQKWKLIGLQRVASPAGAGTLHALSRYSRYTSILDLDNKTLRCPLYRGTLVPRLADHRTQIKRGSTYYLHVQSMLTQLCSKAFLYTFCHHLHLPTHDKETEELVASRQMSFLKLTLGLVNEDVRVVQYLAELLKLHYMQESPGTSHPMLRFDYVPSFLYKI
3 | – | binds | binds | WDR41 (endogenous) (protein, UniProt Q9HAD4 1-459) MLRWLIGGGREPQGLAEKSPLQTIGEEQTQNPYTELLVLKAHHDIVRFLVQLDDYRFASAGDDGIVVVWNAQTGEKLLELNGHTQKITAIITFPSLESCEEKNQLILTASADRTVIVWDGDTTRQVQRISCFQSTVKCLTVLQRLDVWLSGGNDLCVWNRKLDLLCKTSHLSDTGISALVEIPKNCVVAAVGKELIIFRLVAPTEGSLEWDILEVKRLLDHQDNILSLINVNDLSFVTGSHVGELIIWDALDWTMQAYERNFWDPSPQLDTQQEIKLCQKSNDISIHHFTCDEENVFAAVGRGLYVYSLQMKRVIACQKTAHDSNVLHVARLPNRQLISCSEDGSVRIWELREKQQLAAEPVPTGFFNMWGFGRVSKQASQPVKKQQENATSCSLELIGDLIGHSSSVEMFLYFEDHGLVTCSADHLIILWKNGERESGLRSLRLFQKLEENGDLYLAV
